In patent publication US10851043B1, “Compound for fatty acid synthase inhibition” (KANNUR UNIVERSITY, priority 2019, dated 2020):

Test system: L929 (Fibroblast cells)
Test: In-vitro cytotoxic effect on cultured L929 cells (MTT assay)
Type: cell-based
Settings: 24 hours
Procedure: Cultures of L929 (Fibroblast cells) were maintained in Dulbecco's modified eagles media supplemented with 10% fetal bovine serum (FBS) and grown to confluence at 37° C. and 5% CO2 in a humidified atmosphere using a CO2 incubator. The cells were trypsinised (500 μL of 0.025% Trypsin in PBS/0.5 mM Ethylene diamine tetraacetic acid (EDTA) solution for 2 minutes and passed to T flasks under complete aseptic conditions. Test compounds were added to grown cells at a final concentration of 6.25, 12.5, 25, 50 and 100 μg/mL from a stock of 1 mg/mL and incubated for 24 hours. The percentage difference in viability was determined by standard MTT assay after 24 hours of incubation. The MTT assay is a colorimetric assay for assessing cell metabolic activity. NAD (P) H-dependent cellular oxidoreductase enzymes under defined conditions, reflect the number of viable cells present.
Viability percentage was calculated using the Formula, % viability=(OD of Test/OD of control)×100, • where control OD was 0.993.

CC(C)[C@H](O)C(=O)/C(O)=C/[C@@H](N)/C=C\CCCC[C@H]1C=C[C@@H](O)C=C1 [Compound of Formula II, (3S,5Z,7S,8Z)-7-amino-3,5-dihydroxy-2-methyl-13-[(1s,4s)-4-hydroxycyclohexa-2,5-dien-1-yl]trideca-5,8-dien-4-one]
Average Absorbance @ 540 nm (L929, 6.25 μg/mL): 0.901
Average Absorbance @ 540 nm (L929, 12.5 μg/mL): 0.852
Average Absorbance @ 540 nm (L929, 25 μg/mL): 0.741
Average Absorbance @ 540 nm (L929, 50 μg/mL): 0.638
Average Absorbance @ 540 nm (L929, 100 μg/mL): 0.554
